Results are given in words; binding and its absence hold for the method and conditions named. For some assays here: Binding seen in cells or lysates may run through a third protein. Some entries that bind do so weakly or less than the wild type. Where a sequence is shown, tags or fusion partners need not be part of it.

Amino acid sequences for entries named in this document (tags omitted). Residues count along the entry.
UniProt Q03265, residues 44-553: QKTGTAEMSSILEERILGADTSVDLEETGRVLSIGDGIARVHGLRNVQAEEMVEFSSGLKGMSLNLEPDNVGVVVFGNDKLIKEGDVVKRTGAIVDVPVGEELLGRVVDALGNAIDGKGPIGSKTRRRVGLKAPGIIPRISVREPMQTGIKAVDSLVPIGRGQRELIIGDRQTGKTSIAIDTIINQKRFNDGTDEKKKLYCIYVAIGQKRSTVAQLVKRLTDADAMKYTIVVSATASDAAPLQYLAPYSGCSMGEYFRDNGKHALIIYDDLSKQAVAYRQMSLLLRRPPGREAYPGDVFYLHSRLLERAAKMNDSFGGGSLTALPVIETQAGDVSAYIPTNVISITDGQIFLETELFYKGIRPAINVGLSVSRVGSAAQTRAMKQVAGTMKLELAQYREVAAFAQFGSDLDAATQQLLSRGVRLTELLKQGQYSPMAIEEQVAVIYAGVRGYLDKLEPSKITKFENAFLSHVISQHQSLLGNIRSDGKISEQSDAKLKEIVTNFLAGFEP
UniProt P0CE47: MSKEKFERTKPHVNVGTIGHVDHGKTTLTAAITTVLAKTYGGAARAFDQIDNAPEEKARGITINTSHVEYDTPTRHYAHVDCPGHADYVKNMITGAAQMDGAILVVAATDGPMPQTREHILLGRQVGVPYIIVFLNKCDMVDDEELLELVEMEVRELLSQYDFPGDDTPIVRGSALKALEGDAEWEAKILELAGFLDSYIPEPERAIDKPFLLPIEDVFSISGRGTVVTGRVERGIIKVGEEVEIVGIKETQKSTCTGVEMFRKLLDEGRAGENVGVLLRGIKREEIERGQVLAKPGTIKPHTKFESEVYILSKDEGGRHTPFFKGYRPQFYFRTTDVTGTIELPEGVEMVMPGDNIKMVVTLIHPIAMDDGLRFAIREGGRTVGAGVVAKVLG

The target in test [1] is T1, GATD3A:FLAG (glutamine amidotransferase-like class 1 domain-containing protein 3A, mouse, FLAG knock-in) (mouse) (UniProt Q9D172).
T1 sequence: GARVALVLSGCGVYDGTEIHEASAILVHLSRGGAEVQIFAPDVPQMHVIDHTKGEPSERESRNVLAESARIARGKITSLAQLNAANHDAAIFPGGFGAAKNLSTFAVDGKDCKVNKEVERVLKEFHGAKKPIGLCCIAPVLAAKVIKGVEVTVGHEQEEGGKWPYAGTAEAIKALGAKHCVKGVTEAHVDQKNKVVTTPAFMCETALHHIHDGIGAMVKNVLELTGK
As to the kind of experiment: co-IP; FLAG immunoprecipitation from Gatd3a^FLAG/FLAG mouse heart mitochondria, EFTu and ATP5A found in the eluate (Fig. 4B).

The target in test [2] is T2, recombinant human GATD3A:6X-His (mitochondrial localization signal removed) (human) (UniProt P0DPI2).
T2 sequence: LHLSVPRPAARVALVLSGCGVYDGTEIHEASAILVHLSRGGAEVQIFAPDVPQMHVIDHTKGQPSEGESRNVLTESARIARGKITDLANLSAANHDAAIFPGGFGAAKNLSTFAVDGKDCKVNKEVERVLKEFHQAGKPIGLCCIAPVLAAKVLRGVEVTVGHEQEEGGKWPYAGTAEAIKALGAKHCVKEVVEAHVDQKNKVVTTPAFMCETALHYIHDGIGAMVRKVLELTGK
As to the kind of experiment: co-elution in His-tag affinity chromatography (FPLC); lysate of E. coli BL21 DE3 expressing GATD3A:6X-His on a HisTrap HP column, wash 10 mM imidazole, elution over a 10-100 mM imidazole gradient; Coomassie gel, band identified by mass spectrometry.

In the case of “ATP synthase subunit alpha, mitochondrial (from UniProt Q03265 44-553)”, the binding entry in test [1] is “binds”.

Take “bacterial elongation factor EFTu (E. coli) (from UniProt P0CE47 1-394)”: the binding result in test [2] is listed as “binds”.

(Values after article PMC8935817.)
